Measured values as given in article PMC12613623.
These are yes or no findings as the source states them, for the method shown. In cells and extracts the contact can be indirect. Binding can be weak; no strength is given.

Biological target: SIRT3, endogenous in primary neonatal mouse ventricular myocytes (mouse (endogenous in NMVMs))
Test: co-IP; endogenous proteins from NMVM lysate; antibodies against ATP5O, SIRT3 or acetylated lysine overnight at 4 °C, protein A/G-agarose beads; western blot with anti-SIRT3 and anti-ATP5O; control, DCM (HG/PA) and CVB-D groups

B1: ATP5O, endogenous in primary neonatal mouse ventricular myocytes (protein, UniProt Q9DB20 24-213)
chain: FAKLVRPPVQVYGIEGRYATALYSAASKEKKLDQVEKELLRVGQLLKDPKVSLAVLNPYIKRTVKVKSLNDITKREKFSPLTANLMNLLAENGRLGNTQGIISAFSTIMSVHRGEVPCTVTTASPLDDAVLSELKTVLKSFLSPNQILKLEIKTDPSIMGGMIVRIGEKYVDMSAKSKIQKLSKAMREML
  binding: binds
